{"sequences": {"note": "Chains of the proteins cited; added tags and fusions are not shown. Lines headed by an entry give the natural chain unless they say otherwise; changes in a name come on top.", "UniProt Q7L3B6": "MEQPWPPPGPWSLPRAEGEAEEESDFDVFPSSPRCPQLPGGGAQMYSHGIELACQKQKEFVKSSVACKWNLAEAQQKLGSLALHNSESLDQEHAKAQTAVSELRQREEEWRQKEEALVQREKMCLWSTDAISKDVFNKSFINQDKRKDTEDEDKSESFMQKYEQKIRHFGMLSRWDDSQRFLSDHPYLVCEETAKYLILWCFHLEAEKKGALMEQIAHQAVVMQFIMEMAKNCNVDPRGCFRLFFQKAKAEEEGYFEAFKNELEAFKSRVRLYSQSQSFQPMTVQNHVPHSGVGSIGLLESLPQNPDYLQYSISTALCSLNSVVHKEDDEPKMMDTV", "UniProt O15182": "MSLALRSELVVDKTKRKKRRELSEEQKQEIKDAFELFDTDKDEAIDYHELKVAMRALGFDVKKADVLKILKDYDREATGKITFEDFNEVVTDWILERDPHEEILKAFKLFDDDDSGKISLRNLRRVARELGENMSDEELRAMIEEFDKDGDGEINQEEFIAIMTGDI", "UniProt Q96SZ6": "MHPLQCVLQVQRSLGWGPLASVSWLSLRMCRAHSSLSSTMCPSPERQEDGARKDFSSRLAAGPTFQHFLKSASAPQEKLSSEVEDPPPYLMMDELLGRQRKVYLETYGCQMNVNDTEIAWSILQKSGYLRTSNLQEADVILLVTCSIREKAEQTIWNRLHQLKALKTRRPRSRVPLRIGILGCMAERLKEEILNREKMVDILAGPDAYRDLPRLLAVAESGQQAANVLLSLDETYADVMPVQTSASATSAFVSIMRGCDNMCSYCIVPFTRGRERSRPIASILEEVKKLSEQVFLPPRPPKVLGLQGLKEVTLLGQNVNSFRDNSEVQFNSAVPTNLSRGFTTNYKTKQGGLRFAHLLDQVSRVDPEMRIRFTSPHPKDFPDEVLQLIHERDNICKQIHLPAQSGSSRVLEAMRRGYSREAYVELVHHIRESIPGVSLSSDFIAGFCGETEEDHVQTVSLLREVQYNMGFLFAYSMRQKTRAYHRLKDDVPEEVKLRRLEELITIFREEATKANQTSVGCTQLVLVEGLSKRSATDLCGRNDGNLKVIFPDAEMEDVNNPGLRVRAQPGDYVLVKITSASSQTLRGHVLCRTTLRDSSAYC", "UniProt Q5VT06": "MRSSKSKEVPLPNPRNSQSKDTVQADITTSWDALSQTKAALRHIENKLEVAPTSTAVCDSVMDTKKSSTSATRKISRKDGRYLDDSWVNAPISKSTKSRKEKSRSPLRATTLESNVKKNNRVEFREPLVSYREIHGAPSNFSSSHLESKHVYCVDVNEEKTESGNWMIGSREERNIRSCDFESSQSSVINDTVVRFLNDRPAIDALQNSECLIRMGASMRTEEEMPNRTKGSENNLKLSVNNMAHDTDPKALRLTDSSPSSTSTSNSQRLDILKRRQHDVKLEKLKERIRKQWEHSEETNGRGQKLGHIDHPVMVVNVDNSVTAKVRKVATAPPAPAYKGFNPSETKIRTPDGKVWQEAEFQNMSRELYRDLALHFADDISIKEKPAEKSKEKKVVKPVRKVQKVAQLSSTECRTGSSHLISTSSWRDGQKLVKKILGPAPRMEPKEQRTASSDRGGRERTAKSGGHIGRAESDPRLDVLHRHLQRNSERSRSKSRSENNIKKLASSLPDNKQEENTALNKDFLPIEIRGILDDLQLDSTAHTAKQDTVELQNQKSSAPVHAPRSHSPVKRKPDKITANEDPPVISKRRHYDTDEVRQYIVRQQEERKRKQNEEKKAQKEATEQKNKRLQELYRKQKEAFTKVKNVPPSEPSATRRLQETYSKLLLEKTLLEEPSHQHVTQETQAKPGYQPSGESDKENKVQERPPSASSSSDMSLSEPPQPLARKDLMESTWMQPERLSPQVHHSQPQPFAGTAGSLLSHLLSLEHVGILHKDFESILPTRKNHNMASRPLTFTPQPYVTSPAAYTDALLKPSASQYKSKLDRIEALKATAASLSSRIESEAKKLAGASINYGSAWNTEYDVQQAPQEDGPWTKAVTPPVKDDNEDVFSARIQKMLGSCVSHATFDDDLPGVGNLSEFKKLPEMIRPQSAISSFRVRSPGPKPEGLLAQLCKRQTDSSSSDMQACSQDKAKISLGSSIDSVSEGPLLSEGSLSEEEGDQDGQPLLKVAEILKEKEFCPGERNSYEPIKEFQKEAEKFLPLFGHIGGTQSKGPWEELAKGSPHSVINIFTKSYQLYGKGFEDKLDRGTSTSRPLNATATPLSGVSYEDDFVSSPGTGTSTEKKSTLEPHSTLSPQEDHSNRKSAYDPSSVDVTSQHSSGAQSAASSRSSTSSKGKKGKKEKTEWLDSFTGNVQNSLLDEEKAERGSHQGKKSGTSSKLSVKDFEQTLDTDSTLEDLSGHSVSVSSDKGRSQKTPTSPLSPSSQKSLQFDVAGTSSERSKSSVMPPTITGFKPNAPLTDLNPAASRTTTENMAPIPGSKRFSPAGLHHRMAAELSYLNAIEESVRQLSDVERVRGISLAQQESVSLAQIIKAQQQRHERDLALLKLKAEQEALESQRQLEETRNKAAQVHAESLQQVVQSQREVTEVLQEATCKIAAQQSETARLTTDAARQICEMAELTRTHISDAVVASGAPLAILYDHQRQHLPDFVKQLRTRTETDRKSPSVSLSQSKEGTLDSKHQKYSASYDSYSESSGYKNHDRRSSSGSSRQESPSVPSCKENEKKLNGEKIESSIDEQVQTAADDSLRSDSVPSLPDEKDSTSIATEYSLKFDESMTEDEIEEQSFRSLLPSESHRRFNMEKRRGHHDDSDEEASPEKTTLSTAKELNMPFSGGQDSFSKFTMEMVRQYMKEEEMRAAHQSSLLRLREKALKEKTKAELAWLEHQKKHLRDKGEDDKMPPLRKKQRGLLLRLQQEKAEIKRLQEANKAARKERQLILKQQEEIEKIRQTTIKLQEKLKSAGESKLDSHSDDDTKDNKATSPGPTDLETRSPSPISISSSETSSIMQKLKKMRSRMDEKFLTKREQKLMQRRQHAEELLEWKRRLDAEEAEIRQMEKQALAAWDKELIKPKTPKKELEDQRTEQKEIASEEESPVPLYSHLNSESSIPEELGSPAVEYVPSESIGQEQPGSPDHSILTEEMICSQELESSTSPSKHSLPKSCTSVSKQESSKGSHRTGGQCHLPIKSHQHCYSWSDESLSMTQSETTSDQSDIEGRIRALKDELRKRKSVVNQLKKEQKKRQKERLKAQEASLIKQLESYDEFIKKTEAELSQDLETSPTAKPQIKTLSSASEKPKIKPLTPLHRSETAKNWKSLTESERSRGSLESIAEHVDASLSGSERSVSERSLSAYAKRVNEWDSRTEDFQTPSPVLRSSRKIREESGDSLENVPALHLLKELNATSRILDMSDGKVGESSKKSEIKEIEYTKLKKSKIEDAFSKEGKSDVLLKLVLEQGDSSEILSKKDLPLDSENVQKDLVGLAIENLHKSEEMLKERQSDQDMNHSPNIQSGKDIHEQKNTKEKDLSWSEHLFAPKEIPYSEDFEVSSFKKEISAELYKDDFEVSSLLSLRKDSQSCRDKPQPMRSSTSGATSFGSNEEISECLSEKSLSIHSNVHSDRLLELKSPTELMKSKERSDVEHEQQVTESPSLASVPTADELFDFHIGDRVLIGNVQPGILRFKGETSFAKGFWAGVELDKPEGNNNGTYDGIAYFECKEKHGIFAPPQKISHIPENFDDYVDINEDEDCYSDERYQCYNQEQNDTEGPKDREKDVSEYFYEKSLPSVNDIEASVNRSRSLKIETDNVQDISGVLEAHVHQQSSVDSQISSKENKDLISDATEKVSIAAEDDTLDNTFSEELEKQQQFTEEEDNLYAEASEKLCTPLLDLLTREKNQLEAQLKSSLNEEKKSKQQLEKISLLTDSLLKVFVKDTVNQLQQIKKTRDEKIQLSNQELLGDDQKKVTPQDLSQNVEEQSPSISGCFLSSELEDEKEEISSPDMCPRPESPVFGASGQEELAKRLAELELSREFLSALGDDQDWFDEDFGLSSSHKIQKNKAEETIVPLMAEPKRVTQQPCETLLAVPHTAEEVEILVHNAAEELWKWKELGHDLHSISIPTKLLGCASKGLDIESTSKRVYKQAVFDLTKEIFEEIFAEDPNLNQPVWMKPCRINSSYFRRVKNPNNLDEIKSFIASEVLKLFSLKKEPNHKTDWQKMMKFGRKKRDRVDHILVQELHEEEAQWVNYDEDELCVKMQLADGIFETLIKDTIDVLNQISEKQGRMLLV", "UniProt Q9H3R5": "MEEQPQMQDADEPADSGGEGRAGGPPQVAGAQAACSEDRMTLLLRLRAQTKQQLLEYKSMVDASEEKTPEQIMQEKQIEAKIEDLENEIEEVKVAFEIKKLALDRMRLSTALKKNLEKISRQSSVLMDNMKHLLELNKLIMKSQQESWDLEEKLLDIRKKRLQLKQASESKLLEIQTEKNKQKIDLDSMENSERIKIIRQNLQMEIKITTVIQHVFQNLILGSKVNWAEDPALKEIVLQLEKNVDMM", "UniProt Q96G23": "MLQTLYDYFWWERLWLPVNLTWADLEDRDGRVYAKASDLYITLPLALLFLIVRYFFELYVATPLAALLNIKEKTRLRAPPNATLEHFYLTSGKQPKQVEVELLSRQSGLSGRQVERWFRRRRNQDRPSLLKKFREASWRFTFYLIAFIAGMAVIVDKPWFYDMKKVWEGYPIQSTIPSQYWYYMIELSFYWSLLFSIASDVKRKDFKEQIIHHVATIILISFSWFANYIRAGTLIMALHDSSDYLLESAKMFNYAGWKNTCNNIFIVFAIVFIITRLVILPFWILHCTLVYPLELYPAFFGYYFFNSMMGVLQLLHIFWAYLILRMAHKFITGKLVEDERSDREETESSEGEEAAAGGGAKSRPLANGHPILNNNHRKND", "UniProt Q8IWY9": "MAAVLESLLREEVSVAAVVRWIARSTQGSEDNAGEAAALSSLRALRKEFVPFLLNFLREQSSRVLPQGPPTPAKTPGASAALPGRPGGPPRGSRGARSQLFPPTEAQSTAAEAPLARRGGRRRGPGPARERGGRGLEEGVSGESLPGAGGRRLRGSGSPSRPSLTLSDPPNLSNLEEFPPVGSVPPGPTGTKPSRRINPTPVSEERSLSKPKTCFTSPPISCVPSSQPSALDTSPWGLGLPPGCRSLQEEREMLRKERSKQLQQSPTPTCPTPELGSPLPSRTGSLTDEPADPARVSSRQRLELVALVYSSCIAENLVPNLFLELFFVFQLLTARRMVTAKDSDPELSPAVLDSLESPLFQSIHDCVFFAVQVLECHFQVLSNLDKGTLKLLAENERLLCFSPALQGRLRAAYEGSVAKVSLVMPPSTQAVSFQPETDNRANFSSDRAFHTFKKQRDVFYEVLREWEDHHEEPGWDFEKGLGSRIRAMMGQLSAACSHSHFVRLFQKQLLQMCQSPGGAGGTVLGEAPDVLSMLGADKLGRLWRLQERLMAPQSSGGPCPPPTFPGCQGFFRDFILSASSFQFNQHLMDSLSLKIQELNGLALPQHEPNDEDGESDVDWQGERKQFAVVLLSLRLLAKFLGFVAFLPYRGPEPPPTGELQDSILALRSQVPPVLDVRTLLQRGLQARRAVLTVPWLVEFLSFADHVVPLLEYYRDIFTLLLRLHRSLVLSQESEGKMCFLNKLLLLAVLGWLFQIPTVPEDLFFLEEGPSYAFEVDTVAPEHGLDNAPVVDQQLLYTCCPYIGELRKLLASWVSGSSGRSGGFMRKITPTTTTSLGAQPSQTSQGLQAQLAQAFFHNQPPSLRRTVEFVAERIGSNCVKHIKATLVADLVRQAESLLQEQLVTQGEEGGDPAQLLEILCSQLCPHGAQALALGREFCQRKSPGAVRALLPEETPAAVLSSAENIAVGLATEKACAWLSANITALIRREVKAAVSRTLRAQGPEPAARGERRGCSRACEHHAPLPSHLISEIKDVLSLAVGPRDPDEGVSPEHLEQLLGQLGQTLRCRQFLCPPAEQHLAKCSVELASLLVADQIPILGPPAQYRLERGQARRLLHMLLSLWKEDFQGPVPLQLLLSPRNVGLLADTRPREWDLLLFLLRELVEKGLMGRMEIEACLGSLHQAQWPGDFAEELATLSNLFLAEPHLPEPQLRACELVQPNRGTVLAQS", "UniProt Q00536": "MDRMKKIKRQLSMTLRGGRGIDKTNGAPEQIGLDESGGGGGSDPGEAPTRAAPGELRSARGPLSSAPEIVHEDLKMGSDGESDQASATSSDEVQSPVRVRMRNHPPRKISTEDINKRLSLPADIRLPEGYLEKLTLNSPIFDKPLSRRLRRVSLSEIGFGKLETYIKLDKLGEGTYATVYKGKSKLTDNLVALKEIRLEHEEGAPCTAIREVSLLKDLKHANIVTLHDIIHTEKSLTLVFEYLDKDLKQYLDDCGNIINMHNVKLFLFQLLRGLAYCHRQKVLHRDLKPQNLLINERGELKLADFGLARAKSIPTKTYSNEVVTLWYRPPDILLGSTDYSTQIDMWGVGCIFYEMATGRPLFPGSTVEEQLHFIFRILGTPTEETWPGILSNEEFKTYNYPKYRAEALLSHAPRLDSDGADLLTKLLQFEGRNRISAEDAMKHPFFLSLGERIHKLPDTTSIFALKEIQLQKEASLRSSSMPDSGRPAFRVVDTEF"}, "source": "the supplement of paper PMC10849652", "note": "The other results are listed elsewhere or left out.", "data": [{"compound": "c1ccc([C@@H]2C[C@H]2NC2CCNCC2)cc1", "assay": "log2 fold change, soluble protein after heating vs DMSO (PISA); higher = thermal stabilisation; K562 lysate, 10 uM; active = over 0.2 and 3.5 SD of the protein, either way, in both replicates (recomputed)", "summary_of_the_method": "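K562 pellets were dounce-homogenised in PBS pH 7.4 with 1 mM MgCl2, and the crude extract at 1 mg/mL protein was treated with 10 μM compound for 30 min. Aliquots were heated for 3 min across 48°C-58°C, pooled, and brought to 0.5% NP-40 at 4°C; soluble protein was the supernatant after 21,000xg for 90 min. Soluble protein was quantified by TMTpro 16plex LC-MS/MS with channel sums equalised, and reported as log2 fold change in thermal stability against DMSO controls, with values from duplicates.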", "values": [{"target": "CDC37L1 (UniProt Q7L3B6)", "log2 fold change": "inactive: -0.014"}, {"target": "CETN3 (UniProt O15182)", "log2 fold change": "inactive: -0.021"}, {"target": "CES2 isoform 4 (UniProt O00748)", "log2 fold change": "inactive: -0.07"}, {"target": "CERT isoform 3 (UniProt Q9Y5P4)", "log2 fold change": "inactive: 0.027"}, {"target": "CEP135 (UniProt Q66GS9)", "log2 fold change": "inactive: 0.017"}, {"target": "CDK5RAP1 (UniProt Q96SZ6)", "log2 fold change": "inactive: -0.004"}, {"target": "CDR2L (UniProt Q86X02)", "log2 fold change": "inactive: 0.02"}, {"target": "CDC45 isoform 3 (UniProt O75419)", "log2 fold change": "inactive: 0.026"}, {"target": "CENPE (UniProt Q02224)", "log2 fold change": "inactive: -0.066"}, {"target": "CENPQ (UniProt Q7L2Z9)", "log2 fold change": "inactive: -0.013"}, {"target": "CEP350 (UniProt Q5VT06)", "log2 fold change": "inactive: 0.034"}, {"target": "CEP128 (UniProt Q6ZU80)", "log2 fold change": "inactive: -0.507"}, {"target": "CEP170 (UniProt Q5SW79)", "log2 fold change": "inactive: 0.019"}, {"target": "CEP192 (UniProt Q8TEP8)", "log2 fold change": "inactive: -0.053"}, {"target": "CENPH (UniProt Q9H3R5)", "log2 fold change": "inactive: 0.041"}, {"target": "CERS2 (UniProt Q96G23)", "log2 fold change": "inactive: 0.12"}, {"target": "CDC16 (UniProt Q13042)", "log2 fold change": "inactive: 0.021"}, {"target": "CDAN1 (UniProt Q8IWY9)", "log2 fold change": "inactive: 0.005"}, {"target": "CDK16 isoform 2 (UniProt Q00536)", "log2 fold change": "inactive: -0.049"}, {"target": "CEBPZ (UniProt Q03701)", "log2 fold change": "inactive: 0.023"}, {"target": "CDC42EP4 (UniProt Q9H3Q1)", "log2 fold change": "inactive: -0.036"}, {"target": "CELF2 isoform 3 (UniProt O95319)", "log2 fold change": "inactive: 0.08"}]}]}
